Test results from article PMC5466602.

By UniProt entry, the sequences of proteins in these tests, tags left out. Where a name states a change or a piece, a line headed by the entry shows the natural chain unless it says otherwise.
UniProt P25635: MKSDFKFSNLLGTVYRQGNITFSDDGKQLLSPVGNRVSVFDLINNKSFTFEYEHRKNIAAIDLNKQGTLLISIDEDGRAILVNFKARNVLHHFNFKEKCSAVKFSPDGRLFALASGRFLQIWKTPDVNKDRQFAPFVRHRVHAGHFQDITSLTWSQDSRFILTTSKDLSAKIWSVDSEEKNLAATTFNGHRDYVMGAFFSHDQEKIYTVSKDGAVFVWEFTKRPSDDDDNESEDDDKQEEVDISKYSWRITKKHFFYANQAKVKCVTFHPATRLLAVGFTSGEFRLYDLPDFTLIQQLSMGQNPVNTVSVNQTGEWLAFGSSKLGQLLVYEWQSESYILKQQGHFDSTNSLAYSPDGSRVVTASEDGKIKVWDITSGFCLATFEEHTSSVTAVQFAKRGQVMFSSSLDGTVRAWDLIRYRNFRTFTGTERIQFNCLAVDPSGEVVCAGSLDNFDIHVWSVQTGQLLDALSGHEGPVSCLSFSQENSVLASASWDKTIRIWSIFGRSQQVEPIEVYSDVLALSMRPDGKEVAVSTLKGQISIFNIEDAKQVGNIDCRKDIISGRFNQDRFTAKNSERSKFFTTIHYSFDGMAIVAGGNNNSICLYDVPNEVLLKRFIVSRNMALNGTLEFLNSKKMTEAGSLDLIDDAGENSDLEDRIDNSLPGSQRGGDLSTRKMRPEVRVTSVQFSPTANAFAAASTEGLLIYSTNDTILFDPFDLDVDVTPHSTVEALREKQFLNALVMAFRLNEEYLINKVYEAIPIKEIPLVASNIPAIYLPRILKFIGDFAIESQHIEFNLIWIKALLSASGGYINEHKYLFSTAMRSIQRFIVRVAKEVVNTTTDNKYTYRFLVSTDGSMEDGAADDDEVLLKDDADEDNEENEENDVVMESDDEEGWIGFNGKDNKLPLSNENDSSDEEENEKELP
UniProt Q06078: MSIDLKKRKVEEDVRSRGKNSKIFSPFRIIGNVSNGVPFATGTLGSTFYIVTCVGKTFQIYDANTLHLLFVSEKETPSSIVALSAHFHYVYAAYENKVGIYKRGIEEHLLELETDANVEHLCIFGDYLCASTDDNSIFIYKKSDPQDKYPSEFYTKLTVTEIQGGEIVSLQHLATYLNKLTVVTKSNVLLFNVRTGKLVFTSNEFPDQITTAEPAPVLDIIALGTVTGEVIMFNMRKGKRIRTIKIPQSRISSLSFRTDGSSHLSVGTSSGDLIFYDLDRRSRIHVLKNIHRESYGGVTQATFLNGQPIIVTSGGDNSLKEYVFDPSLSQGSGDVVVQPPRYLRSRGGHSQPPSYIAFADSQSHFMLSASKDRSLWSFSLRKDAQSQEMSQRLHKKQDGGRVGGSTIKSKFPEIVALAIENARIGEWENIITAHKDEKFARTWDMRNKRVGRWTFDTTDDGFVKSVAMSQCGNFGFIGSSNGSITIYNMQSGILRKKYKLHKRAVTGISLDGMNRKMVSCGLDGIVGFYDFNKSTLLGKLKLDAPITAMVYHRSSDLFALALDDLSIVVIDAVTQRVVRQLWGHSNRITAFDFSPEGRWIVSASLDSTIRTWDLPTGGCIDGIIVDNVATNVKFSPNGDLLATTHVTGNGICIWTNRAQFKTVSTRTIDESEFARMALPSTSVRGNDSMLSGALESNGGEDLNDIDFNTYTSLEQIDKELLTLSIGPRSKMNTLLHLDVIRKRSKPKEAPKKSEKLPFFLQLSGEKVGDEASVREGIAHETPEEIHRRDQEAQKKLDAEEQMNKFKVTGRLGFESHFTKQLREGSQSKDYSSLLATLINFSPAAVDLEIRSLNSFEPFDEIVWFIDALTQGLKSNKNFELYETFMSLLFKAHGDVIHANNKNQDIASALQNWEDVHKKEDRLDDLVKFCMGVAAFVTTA

How the values were obtained:
Assay in all cases: pull-down; co-expression of four proteins in E. coli from three plasmids (bi-cistronic UTP12-UTP13 in modified pET-28b, PWP2 and UTP21 constructs in modified pET-15b and pCDF); cobalt-affinity pull-down, SDS-PAGE, Coomassie; bands confirmed by mass spectrometry
[1] = target: Pwp2p C-terminal domain (CTD), E. coli (S. cerevisiae) (UniProt P25635)
[2] = target: T1, Utp12p, full-length (co-expressed in E. coli) (S. cerevisiae) (UniProt Q12220)
T1 sequence: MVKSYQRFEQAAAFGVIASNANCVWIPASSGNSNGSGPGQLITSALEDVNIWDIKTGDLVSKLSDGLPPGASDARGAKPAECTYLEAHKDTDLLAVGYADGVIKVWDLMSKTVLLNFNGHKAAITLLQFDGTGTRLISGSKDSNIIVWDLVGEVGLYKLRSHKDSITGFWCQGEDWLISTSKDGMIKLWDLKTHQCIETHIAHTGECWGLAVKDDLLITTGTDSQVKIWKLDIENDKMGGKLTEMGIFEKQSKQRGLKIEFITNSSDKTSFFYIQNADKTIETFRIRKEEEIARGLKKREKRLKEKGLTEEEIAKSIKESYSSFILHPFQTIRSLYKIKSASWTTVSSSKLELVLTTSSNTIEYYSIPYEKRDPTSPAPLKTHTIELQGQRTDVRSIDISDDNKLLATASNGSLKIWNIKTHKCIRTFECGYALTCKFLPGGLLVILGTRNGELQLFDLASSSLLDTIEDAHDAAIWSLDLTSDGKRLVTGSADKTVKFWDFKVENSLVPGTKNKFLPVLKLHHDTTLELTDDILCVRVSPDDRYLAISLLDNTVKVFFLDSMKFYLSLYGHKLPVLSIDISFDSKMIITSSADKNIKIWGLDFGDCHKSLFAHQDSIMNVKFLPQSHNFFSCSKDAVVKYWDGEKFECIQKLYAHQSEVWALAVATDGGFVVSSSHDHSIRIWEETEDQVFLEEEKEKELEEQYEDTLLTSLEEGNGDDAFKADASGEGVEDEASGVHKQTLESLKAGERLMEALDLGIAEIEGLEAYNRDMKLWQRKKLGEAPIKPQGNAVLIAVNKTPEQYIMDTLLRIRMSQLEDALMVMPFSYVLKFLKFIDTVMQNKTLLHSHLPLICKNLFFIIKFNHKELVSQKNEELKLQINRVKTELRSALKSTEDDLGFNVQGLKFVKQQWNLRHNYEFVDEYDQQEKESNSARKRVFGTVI

[3] = target: T2, Utp13p, full-length (co-expressed in E. coli) (S. cerevisiae) (UniProt Q05946)
T2 sequence: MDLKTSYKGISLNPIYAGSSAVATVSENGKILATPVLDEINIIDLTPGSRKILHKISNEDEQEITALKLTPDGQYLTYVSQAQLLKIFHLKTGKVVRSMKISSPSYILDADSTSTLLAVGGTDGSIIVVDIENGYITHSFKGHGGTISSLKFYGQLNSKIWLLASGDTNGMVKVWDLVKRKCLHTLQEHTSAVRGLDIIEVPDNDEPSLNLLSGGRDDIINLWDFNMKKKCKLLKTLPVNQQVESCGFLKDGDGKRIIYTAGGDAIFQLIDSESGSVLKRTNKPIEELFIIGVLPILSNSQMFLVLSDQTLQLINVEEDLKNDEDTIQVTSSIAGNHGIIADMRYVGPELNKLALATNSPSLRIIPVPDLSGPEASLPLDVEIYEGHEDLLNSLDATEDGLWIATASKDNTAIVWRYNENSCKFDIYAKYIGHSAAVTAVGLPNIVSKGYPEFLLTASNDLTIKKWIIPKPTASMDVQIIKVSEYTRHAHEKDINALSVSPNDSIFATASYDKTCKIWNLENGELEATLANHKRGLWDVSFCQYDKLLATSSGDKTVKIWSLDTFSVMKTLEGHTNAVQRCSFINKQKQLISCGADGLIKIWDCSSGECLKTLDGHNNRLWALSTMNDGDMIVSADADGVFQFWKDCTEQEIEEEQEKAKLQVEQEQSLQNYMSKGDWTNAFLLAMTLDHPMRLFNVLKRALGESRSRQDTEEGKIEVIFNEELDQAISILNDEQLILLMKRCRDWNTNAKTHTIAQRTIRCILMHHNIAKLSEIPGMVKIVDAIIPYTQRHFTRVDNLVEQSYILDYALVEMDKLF

binding [1] | binding [2] | binding [3] | Substance
binds | binds | binds | Utp21p C-terminal domain (CTD), E. coli (from UniProt Q06078) (domain or fragment)
 | binds | binds | Pwp2p C-terminal domain (CTD), E. coli (from UniProt P25635) (domain or fragment)

Results are given in words; binding and its absence hold for the method and conditions named. In cells and extracts the contact can be indirect. Binding calls can cover weak binding; strength is not graded here.
